# Laboratory results reported in PubChem BioAssay AID2549 (National Center for Advancing Translational Sciences (NCATS), 2010).
# Sequences of proteins named here, by UniProt entry; tags and fusion partners are left off. A change or cut given only in a name is not applied to a line headed by its entry.
# UniProt P46063: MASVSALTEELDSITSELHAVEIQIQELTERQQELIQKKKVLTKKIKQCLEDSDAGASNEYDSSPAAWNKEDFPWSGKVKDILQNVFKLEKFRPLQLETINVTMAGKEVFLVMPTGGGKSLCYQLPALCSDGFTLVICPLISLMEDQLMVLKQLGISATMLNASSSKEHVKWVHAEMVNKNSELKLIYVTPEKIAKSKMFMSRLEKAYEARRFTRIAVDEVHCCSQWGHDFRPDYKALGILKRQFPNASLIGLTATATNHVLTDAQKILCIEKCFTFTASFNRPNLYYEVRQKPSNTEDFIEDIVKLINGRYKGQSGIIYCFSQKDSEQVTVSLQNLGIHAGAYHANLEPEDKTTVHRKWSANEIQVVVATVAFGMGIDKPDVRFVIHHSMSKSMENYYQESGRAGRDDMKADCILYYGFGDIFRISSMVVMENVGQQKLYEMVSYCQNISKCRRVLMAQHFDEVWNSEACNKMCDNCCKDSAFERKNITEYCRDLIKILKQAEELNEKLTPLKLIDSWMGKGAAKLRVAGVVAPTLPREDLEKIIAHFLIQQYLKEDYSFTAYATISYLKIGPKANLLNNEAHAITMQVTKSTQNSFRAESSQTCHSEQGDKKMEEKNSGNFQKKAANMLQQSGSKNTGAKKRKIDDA
# Hit rate of the full screen: of about 240,000 compounds, about 1,300 (0.54%) were called active. Inconclusive means that the source gave no clear call. Such entries were picked first, then a sample of the others. Calls come from the whole dose curve; as a rule, active = well fitted inhibition curve with a large enough effect; inconclusive = small, poorly fitted or top-dose-only effect; inactive = flat fitted curve, though single readings scatter. A potency beside an inconclusive call is a rough fit, not a confirmed value.
# Molecular target: ATP-dependent DNA helicase Q1 (Homo sapiens) (UniProt P46063)
# Assay: qHTS Assay for Inhibitors of RecQ-Like Dna Helicase 1 (RECQ1); note: nearly all actives have a fitted effect of over 30% in size
# Conditions: RECQ1 DNA unwinding, red fluorescence kinetic read; series mostly up to 57.3 µM
# Procedure, shortened: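 RECQ1T1 50 nM; forked duplex (20 bp + 30-nt ss tails) 200 nM, ATP 2 mM final; pH 8.0, 2 mM MgCl2, 2.5 ug/ml poly(dI-dC); 15 min compound preincubation; discontinuous kinetic read over 2 h at RT.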
# Potency is the fitted concentration of half-maximal effect.
row,Compound,Potency
1,Cc1[nH]n(C(C)(C)C)c(=O)c1Sc1ccc(Cl)cc1,"inconclusive: 7.08 µM [inhibitor, single point]"
2,CC1CCN(CCCNC(=O)c2cc3c(Cl)nc4ccccc4c3s2)CC1,inactive
3,CC(=O)Nc1cccc(Oc2ncnc3scc(-c4ccc(C(C)C)cc4)c23)c1,"inconclusive: 39.8 µM [inhibitor, partial curve]"
4,O=C(c1ccc(Cl)cc1)N1CCN(c2cccc3[nH]ccc23)CC1,"inconclusive: 39.8 µM [inhibitor, single point]"
5,O=[N+]([O-])c1ccc(/C=C/C2=NN(c3ccccc3)C(c3ccco3)C2)o1 (centres undefined),"inconclusive: 25.1 µM [inhibitor, partial curve, poor fit]"
6,C=CCN1CCc2c(cc(O)c(O)c2Cl)C(c2ccccc2)C1 (centres undefined),inactive
7,CC(C)C(NC(=O)c1ccccc1)c1nnc(SCC(=O)Nc2nccs2)n1C (centres undefined),"inconclusive: 39.8 µM [inhibitor, single point]"
8,COc1ccc(C(c2nnnn2C2CCCCC2)N2CCN(c3ccc(OC)cc3)CC2)cc1 (centres undefined),"inconclusive: 15.8 µM [inhibitor, partial curve]"
9,CCCNC(=O)c1nnsc1S(=O)(=O)c1ccc(Cl)cc1,inactive
10,Cc1cc[n+](-c2[nH]c(=O)sc2/C=N/N=C(\[O-])c2ccccc2)cc1C,active: 28.2 µM
11,O=C(O)c1cc(O)c2c(c1)C(=O)c1cc(O)cc(O)c1C2=O,"inconclusive: 35.5 µM [inhibitor, single point]"
12,O=C(O)COc1c(Cl)cc(/C=C2\NC(=O)NC2=O)cc1Br,inactive
13,Cc1ccc(NC(=O)c2ccc(OC(=O)c3ccco3)cc2)cc1,"inconclusive: 7.08 µM [inhibitor, single point]"
14,COc1ccc(CN(CCC(c2ccccc2)c2ccco2)C(=O)c2ccco2)cc1 (centres undefined),"inconclusive: 35.5 µM [inhibitor, partial curve, poor fit]"
15,CN(C)S(=O)(=O)c1cccc(C(=O)OCC(=O)Nc2sccc2C(N)=O)c1,inactive
16,Cc1nc(SCC(=O)NC(=O)NCc2ccco2)nc(C)c1C,"inconclusive: 39.8 µM [inhibitor, single point]"
17,C=CCNC(=S)N/N=C/c1ccc(OCc2ccccc2)cc1,"inconclusive: 39.8 µM [inhibitor, single point]"
18,O=C(NCc1ccccc1)C1=C[C@@H](C2CCCCC2)C[C@@H](OCc2ccc(CO)cc2)O1,active: 15.8 µM
19,Cc1ccc(-c2cc(C(=O)OCC(=O)N(C)C3CCS(=O)(=O)C3)c3ccccc3n2)o1 (centres undefined),"inconclusive: 35.5 µM [inhibitor, single point]"
20,O=C(c1cc(C(=O)c2ccco2)cc(C(=O)c2ccco2)c1)c1ccco1,active: 35.5 µM
21,O=C(Cn1ncc(Cl)c(Cl)c1=O)N1CCN(Cc2ccccc2)CC1,active: 31.6 µM
22,Cc1cccc(C)c1NC(=O)CSCC(=O)c1ccc(O)c(O)c1,inactive
23,CCn1c(SCC(=O)O)nc2sc3c(c2c1=O)CCC3,"inconclusive: 31.6 µM [inhibitor, single point]"

row,Compound,Potency
1,Cc1cc(C)c2[nH]c(=O)c(CN(Cc3ccco3)C(=O)c3cccs3)cc2c1,inactive
2,CCOc1ccc(C(=O)Nc2cccc(-c3cc4ccccc4oc3=O)c2)cc1[N+](=O)[O-],active: 25.1 µM
3,COc1ccc(-c2coc3cc(O)ccc3c2=O)c(O)c1O,active: 3.98 µM
4,O=C(NCc1ccco1)C1CCN(C(=O)Cc2ccccc2)CC1,"inconclusive: 39.8 µM [inhibitor, single point]"
5,O=C1/C(=C/c2ccco2)SC(=S)N1CC1CCCO1 (centres undefined),active: 22.4 µM
6,COc1cc(OC)cc(-c2nnc3n2N=C(c2ccc(OC)cc2OC)CS3)c1,inactive
7,O=C(c1cc(-c2ccccc2)nc2ccccc12)N1CCCc2ccccc21,"inconclusive: 22.4 µM [inhibitor, partial curve, poor fit]"
8,COc1ccc(OC)c(NC(=O)C2CC(=O)N(c3ccc(Br)cc3)C2)c1 (centres undefined),"inconclusive: 0.178 µM [inhibitor, full curve]"
9,Cc1c(-c2ccc(Cl)cc2)[n+](=O)c(-c2ccccc2)cn1[O-],"inconclusive: 0.158 µM [inhibitor, full curve, poor fit]"
10,O=C(CCC(=O)N1CCN(c2ccc(O)cc2)CC1)c1cccs1,"inconclusive: 39.8 µM [inhibitor, single point]"
11,O=C(COC(=O)c1cc(Br)ccc1Cl)NC(=O)NCc1ccccc1,"inconclusive: 3.55 µM [inhibitor, partial curve]"
12,NC(N)=N/N=C/c1ccc(Cl)c([N+](=O)[O-])c1,inactive
13,CCCn1c(=NC(=O)c2ccco2)c(C(=O)OCC)cc2c(=O)n3ccccc3nc21,"inconclusive: 6.31 µM [inhibitor, single point]"
14,COc1ccc(Nc2nnc(-c3ccc(O)cc3)c3ccccc23)cc1C(N)=O,"inconclusive: 35.5 µM [inhibitor, single point]"
15,Cc1cc(C)c(S(=O)(=O)OC[C@H]2C=CC[C@@H](CCC[C@H]3O[C@H](C(=O)OC(C)C)CC[C@@H]3C)O2)c(C)c1,inactive
16,COc1ccc(N=Cc2nc(-c3ccccc3)oc2OC(=O)c2ccccc2)cc1,"inconclusive: 0.501 µM [inhibitor, partial curve, poor fit]"
17,O=S(=O)(c1ccc(-c2csc(=Nc3ccccc3)n2CCCN2CCOCC2)cc1)N1CCOCC1,"inconclusive: 31.6 µM [inhibitor, partial curve]"
18,CN=c1scc(-c2ccccc2F)n1/N=C/c1ccc(O)c(O)c1O,active: 7.94 µM
19,Cc1ccccc1NC(=O)CSc1nc(N)c(C#N)c(-c2cccs2)c1C#N,"inconclusive: 7.08 µM [inhibitor, single point]"
20,COc1cccc(N2CCN(CC(=O)NC(=O)NCc3ccco3)CC2)c1,"inconclusive: 10 µM [inhibitor, partial curve]"
21,Cc1ccc(C)c(/C=C(\C(=O)O)c2ccc(S(=O)(=O)N3CCCCC3)s2)c1,"inconclusive: 39.8 µM [inhibitor, single point]"
22,COc1ccc(/C=C/C(=O)NC(C)C)cc1Br,"inconclusive: 44.7 µM [inhibitor, single point]"
23,CCc1ccc(NC(=O)CSc2nc(NS(=O)(=O)c3ccccc3)cc(=O)[nH]2)cc1,active: 12.6 µM

# In the list so far, these have a Cl atom:
row,Compound,Potency
1,Cc1[nH]n(C(C)(C)C)c(=O)c1Sc1ccc(Cl)cc1,"inconclusive: 7.08 µM [inhibitor, single point]"
2,CC1CCN(CCCNC(=O)c2cc3c(Cl)nc4ccccc4c3s2)CC1,inactive
4,O=C(c1ccc(Cl)cc1)N1CCN(c2cccc3[nH]ccc23)CC1,"inconclusive: 39.8 µM [inhibitor, single point]"
6,C=CCN1CCc2c(cc(O)c(O)c2Cl)C(c2ccccc2)C1 (centres undefined),inactive
9,CCCNC(=O)c1nnsc1S(=O)(=O)c1ccc(Cl)cc1,inactive
12,O=C(O)COc1c(Cl)cc(/C=C2\NC(=O)NC2=O)cc1Br,inactive
21,O=C(Cn1ncc(Cl)c(Cl)c1=O)N1CCN(Cc2ccccc2)CC1,active: 31.6 µM
9,Cc1c(-c2ccc(Cl)cc2)[n+](=O)c(-c2ccccc2)cn1[O-],"inconclusive: 0.158 µM [inhibitor, full curve, poor fit]"
11,O=C(COC(=O)c1cc(Br)ccc1Cl)NC(=O)NCc1ccccc1,"inconclusive: 3.55 µM [inhibitor, partial curve]"
12,NC(N)=N/N=C/c1ccc(Cl)c([N+](=O)[O-])c1,inactive

# Later entries:

row,Compound,Potency
1,O=C(O)C1CSC(c2ccncc2)N1 (centres undefined),inactive
2,COc1ccc(/C=N/NC(=O)CCCC(=O)NC2CCCCC2)cc1,"inconclusive: 7.08 µM [inhibitor, full curve]"
3,COc1ccc(CN2CCNC(=O)C2CC(=O)NCc2ccc(C)s2)c(OC)c1 (centres undefined),"inconclusive: 35.5 µM [inhibitor, partial curve]"
4,CCOc1cc(/C=C2/NC(=S)NC2=O)ccc1OCc1ccc([N+](=O)[O-])cc1,"inconclusive: 3.98 µM [inhibitor, single point]"
5,CCCSc1nc2cc(C)c(C)cc2n1CC(O)CO (centres undefined),inactive
6,Cc1ccc(CC(=S)N2CCOCC2)cc1,inactive
7,CCc1nnc(NS(=O)(=O)c2ccc(NC(=S)NC(=O)/C=C/c3ccc(C(C)C)cc3)cc2)s1,"inconclusive: 39.8 µM [inhibitor, single point]"
8,CC(=O)c1ccc2c(c1)C1C=CCC1C(c1ccncc1)N2 (centres undefined),"inconclusive: 39.8 µM [inhibitor, single point]"
9,COc1ccc2ccccc2c1C1CC(=O)N2CN(C3CCCCC3)CSC2=C1C#N (centres undefined),"inconclusive: 39.8 µM [inhibitor, single point]"
10,O=C1CC(c2ccco2)CC(O)=C1C=Nc1cc(Cl)ccc1O (centres undefined),active: 22.4 µM
11,COc1ccc(-c2cnnc(N/N=C/c3ccc(O)c(O)c3)n2)cc1,active: 15.8 µM
12,CCOc1cc(N2CCOCC2)c(OCC)cc1NC(=O)C(C)C,inactive
13,O=C(CSc1nc2ccc(Cl)cc2[nH]1)NCCc1ccc(Cl)cc1,"inconclusive: 0.141 µM [inhibitor, full curve, poor fit]"
14,CCCOP(=O)(c1ccc(N(C)C)cc1)C(O)c1ccncc1 (centres undefined),inactive
15,Cc1nnc2ccc(-c3ccc(NC(=O)Cc4cccs4)cc3)nn12,active: 31.6 µM
16,CC1=CC(=O)c2c(O)ccc(O)c2C1=O,active: 3.55 µM
17,O=C1/C(=C/c2ccncc2)SC(=S)N1Nc1ccccc1,inactive
18,COc1cc(C(=O)NCc2nnc(SCC(=O)Nc3nc4ccc(C)cc4s3)o2)cc(OC)c1OC,active: 39.8 µM
19,CC[C@H](C)[C@H](NC(=O)[C@H](CCCNC(=N)N)NC(=O)[C@H](CCCNC(=N)N)NC(=O)[C@H](CC(C)C)NC(=O)[C@H](Cc1ccccc1)NC(=O)CNC(=O)CNC(=O)[C@@H](N)Cc1ccc(O)cc1)C(=O)N[C@@H](CCCNC(=N)N)C(=O)N1CCC[C@H]1C(=O)N[C@@H](CCCCN)C(=O)N[C@@H](CC(C)C)C(=O)N[C@@H](CCCCN)C(=O)N[C@@H](Cc1c[nH]c2ccccc12)C(=O)N[C@@H](CC(=O)O)C(=O)N[C@@H](CC(N)=O)C(=O)N[C@@H](CCC(N)=O)C(=O)O,inactive
20,CCCCCOC(=O)CCN1C(=O)/C(=C2\SC(=S)N(CCC(=O)OCCCCC)C2=O)SC1=S,active: 1.58 µM
21,CC(=O)Nc1ccc(S(=O)(=O)NCc2ccc3c(c2)cc(C)n3C)cc1,active: 31.6 µM
22,COc1ccc(CCN2C(=O)CC(Nc3ccc(N4CCOCC4)cc3)C2=O)cc1OC (centres undefined),"inconclusive: 39.8 µM [inhibitor, single point]"
23,O=S(=O)(NC1CCCC1)c1ccc(S(=O)(=O)NC2CCCC2)cc1,"inconclusive: 3.98 µM [inhibitor, partial curve, poor fit]"

# Rewritten as tab-separated lines: part of the list above.
row	Compound	Potency
20	O=C(c1cc(C(=O)c2ccco2)cc(C(=O)c2ccco2)c1)c1ccco1	active: 35.5 µM
3	COc1ccc(-c2coc3cc(O)ccc3c2=O)c(O)c1O	active: 3.98 µM
